Source: PubChem BioAssay AID248 (DTP/NCI, 2004)
The list is a part of this screen's results and no random one: it is rich in T/C values a quarter to a half above the control, in often repeated tests (any T/C) and in doses without a T/C. Other doses and runs of a compound stand elsewhere. T/C: endpoint of the treated group in % of that of the vehicle group. Some doses have a count of surviving animals in place of a T/C: the source files T/C as zero there, which appears to mark a toxic dose or a test without result, not a measured value. Some doses without a T/C left all or most animals alive at the check, yet need not have been tolerated: survival well below the control is almost never listed, so the zero probably covers shortened survival too. Counts of survivors are from the toxicity check (mostly the fifth day) where no day follows; animals may have died later. Schedule codes are those of the source, read here as Q, the interval in days (D) or hours (H), X, the number of doses. Some doses were run more than once; the results are listed from low to high. Some schedules carry Z or #; the key to these is not given. Brackets with × count equal records among those shown. Where survival is the endpoint, the PubChem record calls one and a half times the control and up active, and a quarter to a half above the control has no call in these data; cut-offs in other NCI protocols can differ. Some T/C values carry the count of animals alive at the toxicity check (mostly the fifth day); where none is given, no animal had died by that day.

System: L1210 leukemia ip in BDF1 mice, survival T/C
Assay: NCI In Vivo Anticancer Drug Screen. Data for tumor model L1210 Leukemia (intraperitoneal) in B6D2F1 (BDF1) mice
Conditions: higher T/C = longer survival
[1] = T/C endpoint: mean survival time, dose: 2.0 mg/kg/injection, schedule: Q01DX009 (ip), vehicle: saline
[2] = T/C endpoint: mean survival time, dose: 2.0 mg/kg/injection, schedule: Q01DX010 (ip), vehicle: saline
[3] = T/C endpoint: mean survival time, dose: 4.0 mg/kg/injection, schedule: Q01DX001 (ip), vehicle: saline
[4] = T/C endpoint: mean survival time, dose: 4.0 mg/kg/injection, schedule: Q04DX003 (ip), vehicle: saline
[5] = T/C endpoint: mean survival time, dose: 4.0 mg/kg/injection, schedule: Q## X003 (ip), vehicle: saline

With `C1CN1c1nc(N2CC2)nc(N2CC2)n1` the survivor count (T/C endpoint: mean survival time, dose: 2.0 mg/kg/injection, schedule: Q01DX006 (iv), vehicle: saline) was 6 of 6, the T/C [1] was 89 % of control and the survivor count [1] was 4 of 6 and 6 of 6. The T/C (T/C endpoint: mean survival time, dose: 2.0 mg/kg/injection, schedule: Q01DX009 (oral), vehicle: saline) was 143 % of control, the T/C [2] was 88 % of control and the survivor count [2] was 6 of 6. For the same compound, the survivor count (T/C endpoint: mean survival time, dose: 2.0 mg/kg/injection, schedule: Q01DX Z (im), vehicle: saline) was 5 of 6, the survivor count (T/C endpoint: mean survival time, dose: 2.0 mg/kg/injection, schedule: Q01DX Z (ip), vehicle: saline) was 6 of 6 and the T/C (T/C endpoint: mean survival time, dose: 2.0 mg/kg/injection, schedule: Q01DX Z (oral), vehicle: saline) was 125 % of control. The survivor count (T/C endpoint: mean survival time, dose: 2.0 mg/kg/injection, schedule: Q01DX Z (sc), vehicle: saline) was 6 of 6, the T/C (T/C endpoint: mean survival time, dose: 2.0 mg/kg/injection, schedule: Q04DX003 (ip), vehicle: Klucel (hydroxypropylcellulose) (HPC)) was 125 and 130 % of control and the T/C (T/C endpoint: mean survival time, dose: 2.0 mg/kg/injection, schedule: Q04DX003 (ip), vehicle: saline, evaluated on day 20) was 88 % of control. The T/C (T/C endpoint: mean survival time, dose: 2.0 mg/kg/injection, schedule: Q04DX003 (ip), vehicle: saline, evaluated on day 30) was 113, 125, 134, 138, 178, 197, 219, 223 % of control, the T/C (T/C endpoint: mean survival time, dose: 2.0 mg/kg/injection, schedule: Q04DX003 (ip), vehicle: saline, evaluated on day 60) was 94, 95, 100, 112, 116 % of control and the T/C (T/C endpoint: mean survival time, dose: 2.0 mg/kg/injection, schedule: Q## X008 (ip), vehicle: saline) was 129 and 136 % of control. The survivor count (T/C endpoint: mean survival time, dose: 2.0 mg/kg/injection, schedule: Q#A X Z (ip), vehicle: saline) was 6 of 6, the survivor count (T/C endpoint: mean survival time, dose: 2.25 mg/kg/injection, schedule: Q01DX005 (ip), vehicle: saline) was 9 of 10 and the survivor count (T/C endpoint: mean survival time, dose: 3.0 mg/kg/injection, schedule: Q03DX Z (ip), vehicle: saline) was 7 of 7. The survivor count (T/C endpoint: mean survival time, dose: 3.2 mg/kg/injection, schedule: Q01DX009 (ip), vehicle: saline) was 5 of 6, the survivor count (T/C endpoint: mean survival time, dose: 3.5 mg/kg/injection, schedule: Q07DX Z (ip), vehicle: saline) was 7 of 7 and the T/C [3] was 154 % of control. For the same compound, the survivor count [3] was 6 of 10 and 7 of 7, the survivor count (T/C endpoint: mean survival time, dose: 4.0 mg/kg/injection, schedule: Q01DX001 (sc), vehicle: saline) was 1 of 10 and the survivor count (T/C endpoint: mean survival time, dose: 4.0 mg/kg/injection, schedule: Q01DX005 (ip), vehicle: saline) was 10 of 10. For the same compound, the survivor count (T/C endpoint: mean survival time, dose: 4.0 mg/kg/injection, schedule: Q01DX009 (ip), vehicle: saline) was 6 of 6, the survivor count (T/C endpoint: mean survival time, dose: 4.0 mg/kg/injection, schedule: Q01DX010 (oral), vehicle: carboxymethylcellulose (CMC)) was 6 of 6 and the survivor count (T/C endpoint: mean survival time, dose: 4.0 mg/kg/injection, schedule: Q04DX003 (ip), vehicle: Klucel (hydroxypropylcellulose) (HPC)) was 3 of 6 and 4 of 6. The T/C [4] was 86, 88, 89, 91, 122 % of control, the survivor count [4] was 2 of 10, 3 of 10, 4 of 10, 3 of 6, 6 of 10, 8 of 10, 5 of 6, 6 of 6 (2×) and the T/C [5] was 148 % of control [8 of 10 alive]. The survivor count [5] was 4 of 10, the T/C (T/C endpoint: mean survival time, dose: 4.0 mg/kg/injection, schedule: Q## X016 (ip), vehicle: saline) was 137 % of control and the survivor count (T/C endpoint: mean survival time, dose: 4.0 mg/kg/injection, schedule: Q## X024 (ip), vehicle: saline) was 4 of 10 and 9 of 10. The survivor count (T/C endpoint: mean survival time, dose: 6.0 mg/kg/injection, schedule: Q03DX Z (ip), vehicle: saline) was 7 of 7, the survivor count (T/C endpoint: mean survival time, dose: 6.25 mg/kg/injection, schedule: Q01DX001 (ip), vehicle: saline) was 6 of 6 and the survivor count (T/C endpoint: mean survival time, dose: 7.0 mg/kg/injection, schedule: Q07DX Z (ip), vehicle: saline) was 7 of 7. The survivor count (T/C endpoint: mean survival time, dose: 8.0 mg/kg/injection, schedule: Q01DX001 (ip), vehicle: saline) was 8 of 10 and 7 of 7, the T/C (T/C endpoint: mean survival time, dose: 8.0 mg/kg/injection, schedule: Q01DX001 (oral), vehicle: saline) was 129 % of control and the survivor count (T/C endpoint: mean survival time, dose: 8.0 mg/kg/injection, schedule: Q01DX005 (ip), vehicle: saline) was 6 of 10. The survivor count (T/C endpoint: mean survival time, dose: 8.0 mg/kg/injection, schedule: Q01DX010 (oral), vehicle: carboxymethylcellulose (CMC)) was 5 of 6, the survivor count (T/C endpoint: mean survival time, dose: 8.0 mg/kg/injection, schedule: Q01DX Z (oral), vehicle: saline) was 6 of 6 and the survivor count (T/C endpoint: mean survival time, dose: 8.0 mg/kg/injection, schedule: Q## X008 (ip), vehicle: saline) was 5 of 10. The survivor count (T/C endpoint: mean survival time, dose: 12.5 mg/kg/injection, schedule: Q01DX001 (ip), vehicle: saline) was 6 of 6, the survivor count (T/C endpoint: mean survival time, dose: 14.0 mg/kg/injection, schedule: Q07DX Z (ip), vehicle: saline) was 7 of 7 and the survivor count (T/C endpoint: mean survival time, dose: 16.0 mg/kg/injection, schedule: Q01DX001 (ip), vehicle: saline) was 4 of 7. The T/C (T/C endpoint: mean survival time, dose: 16.0 mg/kg/injection, schedule: Q01DX001 (oral), vehicle: saline) was 127 % of control [7 of 10 alive], the survivor count (T/C endpoint: mean survival time, dose: 25.0 mg/kg/injection, schedule: Q01DX001 (ip), vehicle: saline) was 2 of 6 and 6 of 6 and the survivor count (T/C endpoint: mean survival time, dose: 50.0 mg/kg/injection, schedule: Q01DX001 (ip), vehicle: saline) was 0 of 6. For the same compound, the survivor count (T/C endpoint: mean survival time, dose: 100.0 mg/kg/injection, schedule: Q01DX001 (ip), vehicle: saline) was 0 of 6, the survivor count (T/C endpoint: mean survival time, dose: 200.0 mg/kg/injection, schedule: Q01DX001 (ip), vehicle: saline) was 0 of 6 and the T/C (T/C endpoint: median survival time, dose: 1.0 mg/kg/injection, schedule: Q01DX001 (ip), vehicle: saline, evaluated on day 8) was 136 % of control. For the same compound, the T/C (T/C endpoint: median survival time, dose: 1.0 mg/kg/injection, schedule: Q01DX001 (ip), vehicle: saline, evaluated on day 30) was 136 % of control, the T/C (T/C endpoint: median survival time, dose: 2.0 mg/kg/injection, schedule: Q01DX001 (ip), vehicle: saline, evaluated on day 8) was 126 % of control and the T/C (T/C endpoint: median survival time, dose: 2.0 mg/kg/injection, schedule: Q01DX001 (ip), vehicle: saline, evaluated on day 30) was 126 % of control.
